Assay results published in PubChem BioAssay AID445 (National Center for Advancing Translational Sciences (NCATS), 2006).
The other results are listed elsewhere or left out. These are further read-outs of the screen, such as a control signal, another cell line or another target. No call is given for them. The list favours compounds with an active or inconclusive main result. The note in brackets gives the kind of curve behind each potency; many fits are weak.

Assay: IkB Signaling
Conditions: ABC-DLBCL IkBa-CBG/CBR dual luciferase ratio (green luciferase fused to IkBa over red control in OCI-Ly3 lymphoma cells), 4 h
In short: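 Curves were fitted separately to fusion (green), unfused (red) and ratio luminescence, then classed by r2, magnitude and activity. Cells: OCI-Ly3, 4 h compound plus doxycycline at 37C; 10 uM MG-132 defined full response.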

[1] = measured here: control luc red channel unless noted
[2] = measured here: IkB-luc green channel
[3] = measured here: control luc red channel

Which AC50 [1] does the source give for CCOc1cc(C2c3c(-c4ccccc4O)n[nH]c3C(=O)N2CCc2ccccc2)ccc1O (stereo not drawn) here?
The AC50 was 39.8 µM [falling, single point].

For CCCCCC(=O)Nc1cccc(-c2nc3ncccc3o2)c1, which AC50 [1] is on record?
The AC50 was 31.6 µM [falling, single point].

For CNC(=O)COc1ccc(Nc2nnc(-c3ccc(C)c(S(=O)(=O)NC(C)(C)C)c3)c3ccccc23)cc1, which AC50 [1] is on record?
Its AC50 is 20 µM [falling, single point].

With COc1ccc(-c2onc(C)c2C)cc1S(=O)(=O)NC1CCC(C)CC1 (stereo not drawn) as the compound, how does the AC50 [1] read?
The AC50 was 39.8 µM [falling, single point].

Which AC50 [1] does the source give for Cc1ccc(OCC(=O)Nc2ccc(C(=O)OCc3cc(=O)n4c(C)csc4n3)cc2)cc1 here?
The AC50 was 3.16 µM [falling, full curve].

With O=C(Nc1ccc(F)cc1F)c1ccc(-n2cnnc2)cc1 as the compound, how does the AC50 [1] read?
Its AC50 is 15.8 µM [falling, partial curve].

Which AC50 [1] does the source give for O=C(NCC12CC3CC(CC(C3)C1)C2)c1cc2nc(-c3ccc(F)cc3)cc(C(F)(F)F)n2n1 here?
The AC50 was 31.6 µM [falling, partial curve, poor fit].

Which AC50 [1] does the source give for Cc1cc(-n2c(C)nc3ccccc3c2=O)ccc1NC(=O)c1cccc([N+](=O)[O-])c1 here?
The AC50 was 25.1 µM [falling, single point].

Which AC50 [1] does the source give for Cc1cccc(NC(=O)CSc2cc(C)c3ccccc3n2)c1 here?
Its AC50 is 39.8 µM [falling, single point].

With COc1ccc(N2CCN(C(=O)Nc3cccc(C(F)(F)F)c3)CC2)cc1 as the compound, how does the AC50 [1] read?
The AC50 was 25.1 µM [falling, single point].

For Cc1ccc(-n2c(=O)c3oc4ccccc4c3n(CC(=O)Nc3ccccc3)c2=O)cc1C, which AC50 [1] is on record?
The AC50 was 31.6 µM [falling, single point].

Which AC50 [1] does the source give for COc1cccc(Nc2nc(-c3ccccc3)c3cc(C)ccc3n2)c1 here?
Its AC50 is 20 µM [falling, single point].

For Cc1ccc(NC(=O)C(Cc2ccccc2)NS(=O)(=O)c2cccc3nsnc23)c(C)c1 (stereo not drawn), which AC50 [1] is on record?
Its AC50 is 12.6 µM [falling, partial curve].

Which AC50 [1] does the source give for COc1ccc(NC(=O)CSC2=Nc3ccccc3C3=NC(CC(=O)NCc4ccc(F)cc4)C(=O)N23)cc1 (stereo not drawn) here?
Its AC50 is 20 µM [falling, partial curve, poor fit].

Which AC50 [1] does the source give for COc1cccc(NC(=O)/C(C#N)=C\c2cn(Cc3ccc(Cl)cc3)c3ccccc23)c1 here?
The AC50 was 3.98 µM [falling, full curve].

With COc1ccc(CNC(=O)Cn2c(=O)oc3cc(S(=O)(=O)N4CCCC4)ccc32)cc1 as the compound, how does the AC50 [1] read?
The AC50 was 10 µM [falling, partial curve].

Which AC50 [1] does the source give for O=C(O)c1cc(Cl)c2ccccc2c1O here?
The AC50 was 25.1 µM [falling, single point].

For CCCCc1ccc(C(=O)N/C(=C\c2ccc(C)cc2)C(=O)NC2CCCCC2)cc1, which AC50 [1] is on record?
Its AC50 is 3.16 µM [falling, full curve].

For Cc1ccc(Cl)cc1N1CCN(C(=O)c2ccc(C)c(-n3c(C)nc4cccnc43)c2)CC1, which AC50 [1] is on record?
The AC50 was 25.1 µM [falling, partial curve].

For CCc1nc2ccc(C(=O)N3CCN(c4ccc(Cl)cc4)CC3)cc2nc1CC, which AC50 [1] is on record?
The AC50 was 20 µM [falling, partial curve].

Which AC50 [1] does the source give for Cc1cc(C(F)F)n2nc(C(=O)Nc3ccc(F)c(Cl)c3)nc2n1 here?
Its AC50 is 0.398 µM [rising, partial curve].

Which AC50 [1] does the source give for COc1ccc2c(C)c(CCC(=O)NCCc3ccc(Cl)cc3)c(=O)oc2c1 here?
The AC50 was 25.1 µM [falling, partial curve].

Which AC50 [1] does the source give for CC1(C(=O)Nc2nccs2)Cc2ccccc2C(=O)O1 (stereo not drawn) here?
Its AC50 is 10 µM [falling, partial curve].

With COCCCNC(=O)CCc1c(C)nc2cc(-c3ccc(Cl)cc3)nn2c1C as the compound, how does the AC50 [1] read?
Its AC50 is 0.2 µM [falling, full curve].

For O=C(c1cccs1)N1CCCc2cc(NS(=O)(=O)c3ccc(F)cc3)ccc21, which AC50 [1] is on record?
The AC50 was 39.8 µM [falling, single point].

With CC(C)Cn1c(/C=C/c2ccc(F)cc2)nc2ccccc21 as the compound, how does the AC50 [1] read?
The AC50 was 31.6 µM [falling, single point].

Which AC50 [1] does the source give for O=C(c1ccc2c(=O)n(CCc3ccccc3)c(=O)[nH]c2c1)N1CCN(c2ccc(Cl)cc2)CC1 here?
Its AC50 is 5.01 µM [falling, full curve].

With CCn1c(C)c(C)c2cc(C(=O)NCCc3ccc(C)cc3)ccc21 as the compound, how does the AC50 [1] read?
Its AC50 is 25.1 µM [falling, single point].

For Cc1nn2c(-c3cccc(NC(=O)c4ccc(Cl)cc4)c3)nnc2c2ccccc12, which AC50 [2] is on record?
The AC50 was 39.8 µM [rising, single point].

And the AC50 [3]?
The AC50 was 39.8 µM [rising, single point].

With O=C(NCCOc1ccc(Cl)cc1)C1CC(=O)N(c2ccc(F)cc2)C1 (stereo not drawn) as the compound, how does the AC50 [1] read?
The AC50 was 25.1 µM [falling, single point].

Which AC50 [2] does the source give for Cc1cccc(N2CCN(C(=O)C3CCN(c4nnc(-n5cccc5)s4)CC3)CC2C)c1 (stereo not drawn) here?
Its AC50 is 20 µM [falling, partial curve].

What about the AC50 [3] of the same compound?
Its AC50 is 2.51 µM [falling, full curve].

With CCS(=O)(=O)N1CCc2cc(C(=O)Nc3cc(Cl)ccc3C)ccc21 as the compound, how does the AC50 [1] read?
Its AC50 is 20 µM [falling, partial curve].

With CCOC(=O)c1c(C)[nH]c(CCC(=O)Nc2ccccc2C(=O)OC)c1C as the compound, how does the AC50 [1] read?
The AC50 was 39.8 µM [falling, single point].

Which AC50 [1] does the source give for COc1ccc(-n2c(-c3ccco3)nc3c(cnn3-c3ccc(C)cc3)c2=O)cc1 here?
The AC50 was 25.1 µM [falling, single point].

For Cc1ccc(-c2ccc(=O)n(CC(=O)NCc3ccc(F)cc3)n2)cc1, which AC50 [1] is on record?
Its AC50 is 12.6 µM [falling, partial curve].

For COc1ccc(-c2nc3n(n2)C(=O)CC(c2ccc(Cl)cc2)S3)cc1 (stereo not drawn), which AC50 [1] is on record?
Its AC50 is 10 µM [falling, partial curve].

With COc1ccc2cc3cc(C(=O)NCCc4ccc(OC)c(OC)c4)oc3nc2c1 as the compound, how does the AC50 [1] read?
Its AC50 is 3.98 µM [falling, full curve, poor fit].

For c1ccc2c(c1)nnn2-c1ncnc2sc3c(c12)CCCC3, which AC50 [1] is on record?
The AC50 was 39.8 µM [falling, single point].

Which AC50 [1] does the source give for Cc1cccc(NC(=O)CCn2nc(-c3ccccc3)c3ccccc3c2=O)c1 here?
Its AC50 is 3.98 µM [rising, partial curve].

For COc1ccc(NC(=O)C2CCCN2S(=O)(=O)c2ccc3nc(-c4ccccc4)[nH]c3c2)cc1 (stereo not drawn), which AC50 [1] is on record?
Its AC50 is 10 µM [falling, partial curve].

For Fc1ccc(Cn2nnnc2C(c2cccs2)N2CCCCCC2)cc1 (stereo not drawn), which AC50 [1] is on record?
Its AC50 is 39.8 µM [falling, single point].

For CCOC(=O)c1cc(-c2ccc(C)cc2)n(CCC(=O)Nc2ccc(OC)c(OC)c2)c1C, which AC50 [1] is on record?
The AC50 was 39.8 µM [falling, partial curve, poor fit].

Which AC50 [1] does the source give for CCCCCN1C(C(=O)c2ccccc2)=C(NC(=O)c2ccccc2Cl)c2ccccc2S1(=O)=O here?
Its AC50 is 5.01 µM [falling, partial curve].

For Nc1nc(Cl)nc2c1ncn2[C@@H]1O[C@@H](COP(=O)(O)OP(=O)(O)OP(=O)(O)O)[C@@H](O)[C@H]1O, which AC50 [1] is on record?
Its AC50 is 1 µM [rising, full curve, poor fit] [measured here: IkB-luc green channel].

With O=C1C(C2=C(O)c3ccccc3C2=O)=Nc2ccccc21 as the compound, how does the AC50 [1] read?
The AC50 was 0.02 µM [falling, full curve].

For COc1ccc(CCNC(=O)c2ccc3c(c2)N(Cc2ccc(Cl)cc2)CCS3)c(OC)c1, which AC50 [1] is on record?
The AC50 was 12.6 µM [falling, partial curve].

With O=C1CC(c2ccc(Cl)cc2)Sc2nc(-c3ccc(F)cc3)nn21 (stereo not drawn) as the compound, how does the AC50 [1] read?
Its AC50 is 12.6 µM [falling, partial curve].

For COc1ccc(-c2cnc(C)o2)cc1S(=O)(=O)Nc1ccc(C)c(N(C)C)c1, which AC50 [1] is on record?
Its AC50 is 0.00631 µM [rising, full curve].

Which AC50 [1] does the source give for N#C/C(=C1/CCCCCN1)c1nc2ccccc2s1 here?
The AC50 was 0.126 µM [falling, full curve].

Which AC50 [1] does the source give for Cn1c(=O)[nH]c2cc(-c3noc(-c4ccc(F)cc4)n3)ccc21 here?
The AC50 was 0.126 µM [rising, full curve].

Which AC50 [1] does the source give for CCn1c(=O)cc(SCC(=O)NCCc2ccc(OC)cc2OC)c2ccccc21 here?
The AC50 was 31.6 µM [falling, single point].

Which AC50 [1] does the source give for CCCn1c(=O)c2sccc2n2c(CCCC(=O)Nc3cccc(CC)c3)nnc12 here?
The AC50 was 39.8 µM [falling, single point].

For Cn1c(CN2CCCCC2)nc2cc(NC(=O)c3ccc(F)cc3)ccc21, which AC50 [1] is on record?
The AC50 was 10 µM [falling, partial curve].

Which AC50 [1] does the source give for COc1ccccc1CNC(=O)CCCCn1c(=O)c2ccccc2n(CC(=O)Nc2cc(Cl)ccc2C)c1=O here?
Its AC50 is 31.6 µM [rising, single point] [measured here: IkB-luc green channel].

Which AC50 [2] does the source give for CCOC(=O)C1(Cc2ccccc2)NC(c2ccccc2F)C2C(=O)N(CC)C(=O)C21 (stereo not drawn) here?
The AC50 was 20 µM [falling, partial curve, poor fit].

What about the AC50 [3] of the same compound?
The AC50 was 20 µM [falling, single point].

For O=C(CN(Cc1ccco1)C(=O)CNS(=O)(=O)c1ccc(Cl)cc1)NCc1ccc(F)cc1, which AC50 [1] is on record?
The AC50 was 20 µM [falling, partial curve].

For COc1ccc2c(c1)c1c(c(=O)n(-c3ccccc3C)c(=O)n1CC(=O)Nc1c(C)cccc1C)n2C, which AC50 [1] is on record?
Its AC50 is 1.58 µM [falling, partial curve].

With O=c1c2[nH]c3ccccc3c2nc(SCc2cccc(F)c2)n1-c1ccccc1 as the compound, how does the AC50 [1] read?
The AC50 was 0.02 µM [falling, full curve, poor fit].

With Cc1cccc(C(=O)Nc2ccccc2SCc2cc(=O)c3cccc(C)c3[nH]2)c1 as the compound, how does the AC50 [1] read?
The AC50 was 25.1 µM [falling, partial curve, poor fit].

For Cc1nnc(N2CCN(c3ccccc3F)CC2)c2c1nnn2Cc1ccccc1, which AC50 [1] is on record?
The AC50 was 25.1 µM [falling, partial curve].
